According to patent US5514653A, “Method of blocking the SEC receptor” (Washington University, priority 1994, dated 1996):
At least one peptide structure holds a part that was inferred or is arguable (an end, a ring closure or a residue). No end group written: not given here.

Legend:
[1] = test system: human glioblastoma cell line U373MG; experiment: MTT assay of toxicity in U373MG cells; assay type: cell-based; conditions: FIG. 5
neurons = conditions: read-out: half-maximal concentration for enhancing the neurotoxicity of glutamate; cited from earlier work
PC12 cells [2] = experiment: MTT assay of neurotoxicity in PC12 cells; assay type: cell-based
Protocol: (§1) The MTT assay (19) was used to monitor the neurotoxicity of amyloid-β peptide. […] Inhibition of MTT reduction is a specific, early indicator of amyloid-β-mediated cytotoxicity. The PC12 cell line was used because it is the most well characterized cell line of neuronal origin and because previous studies have shown there is abundant expression of SEC receptor in this cell line.
(§2) First, the effect of amyloid-β 25-35 on MTT reduction in PC12 cells was examined (FIG. 1). PC12 cells were incubated for six (6) hours at 37° C. with amyloid-β 25-35 in several different concentrations as shown on the horizontal axis. MTT was added and the cells incubated at 37° C. for another two (2) hours. Cell extraction buffer was added and the incubation continued at 37° C. overnight. Cell extracts were then subjected to spectro-photometric analysis at 570 nm.
Second, the specificity of the effect of amyloid-β 25-35 on MTT reduction in PC12 cells was examined (FIG. 2).
(§3) In the MTT assay used herein, inhibition of cellular redox activity is measured by 3- 4,5-dimethylthiazol-2-yl!-2,5-diphenyltetrazolium bromide (MTT) by conventional procedures as described by Hansen et al. (19).

PC12 cells [3] = experiment: Inhibition of amyloid-β 25-35 neurotoxicity (MTT assay) in PC12 cells; assay type: cell-based; conditions: for inhibition of the effect of amyloid-β 25-35 (neurotoxicity): FIG. 3 and 4
Excerpt: as §1, with “line. Using ^125 I peptide 105Y there is specific, saturable binding.” for “line.”
as §2, with “nm. Results were reported as percent control response as determined by the difference between control cells and cells lysed prior to incubation with MTT. […] The point of half-maximal reduction is between 10^-9 to 10^-8 M which correlates well with the point of half-maximal saturation of the SEC receptor.” for “nm.”
Third, the possibility that the effect of amyloid-β 25-35 is mediated by the SEC receptor was examined (FIG. 3). […] However, for each of these peptides the effect is short-term and each has weak agonistic activity at high concentrations when used alone.
Fourth, the possibility that peptide PB145 inhibits the toxic effect of amyloid-β 25-35 was examined (FIG. 4). The effect is concentration-dependent. The effect is evident at concentrations as low as 0.33 μM. The effect is time-dependent, but lasts at least 24 hours.
as §3

[4] = test system: human glioblastoma cell line U373MG; experiment: Inhibition of amyloid-β 25-35 toxicity in U373MG cells; assay type: cell-based; conditions: FIG. 5
SEC receptor = experiment: Competition for binding to the SEC receptor

**Q.** What does the source list for GSNKGAIIGLM [amyloid-β 25-35]?
**A.** toxicity to U373MG cell line [1]: toxic to the U373MG cell line; EC50 (neurons): ~40 nM; IC50 (PC12 cells [2]; 6 hours at 37° C., FIG. 1, read-out: point of half-maximal reduction (decrease in MTT reduction)): 1 to 10 nM; effect on MTT reduction (PC12 cells [2]; FIG. 1 and 2): concentration-dependent decrease in MTT reduction

**Q.** Which “duration of inhibitory effect” value (PC12 cells [3]) does the source give for “IAGRSLNPNRVTLRYNKPFILVLFETPGNSLVFLGRISNPATK [PB145]” here?
**A.** at least 24 hours

**Q.** And the “inhibition of the effect of amyloid-β 25-35 (neurotoxicity)” value (shortened to “inhibition … (neurotoxicity)”) (PC12 cells [3])?
**A.** concentration-dependent

**Q.** What about the “lowest concentration at which inhibitory effect is evident” value (PC12 cells [3]; FIG. 4) of the same sequence?
**A.** 0.33 µM

**Q.** What about the “inhibition of amyloid-β 25-35 toxicity” value [4] of the same sequence?
**A.** completely inhibited

**Q.** Which “inhibition … (neurotoxicity)” value (PC12 cells [3]) does the source give for IEQNTKSPLFMGKVVNPTQK [peptide 154] here?
**A.** does not

**Q.** Which “inhibition … (neurotoxicity)” value (PC12 cells [3]) does the source give for “MSIPPEVKFNKPFVFLMIEQNTKSPLFMGKVVNPTQK [peptide 446]” here?
**A.** inhibit the effect of amyloid-β 25-35

**Q.** What about the “competition for binding to the SEC receptor” value (SEC receptor) of the same sequence?
**A.** compete for binding to the SEC receptor

**Q.** For “VKFNKPFVFLMIEQNTKSPLFMGKVVNPTQK [peptide 96]”, which “inhibition … (neurotoxicity)” value (PC12 cells [3]) is on record?
**A.** inhibit the effect of amyloid-β 25-35

**Q.** What about the “competition for binding to the SEC receptor” value (SEC receptor) of the same sequence?
**A.** compete for binding to the SEC receptor
